The list shows a part of the results.
compound: CC1Cc2ccccc2N1C(=O)C1CCCN(C1)C(=O)CCl (mixture of isomers) [TRIM25 ligand 11 (diastereomer mixture)]; assay: probe-labelled cysteine peptide fold change vs DMSO (competition) (log2 fold change); higher = less target engagement (more negative = stronger competition); settings: 10 µM; THP-1; incubation time: 4 h
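Note: competitive chemoproteomic profiling in live THP-1 cells with an iodoacetamide desthiobiotin (IA-DTB) probe, comparing probe-labelled peptide intensities in compound-treated cells against DMSO-treated controls.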

Chains of the proteins cited; added tags and fusions are not shown. Lines headed by an entry give the natural chain unless they say otherwise; changes in a name come on top.
UniProt P50440: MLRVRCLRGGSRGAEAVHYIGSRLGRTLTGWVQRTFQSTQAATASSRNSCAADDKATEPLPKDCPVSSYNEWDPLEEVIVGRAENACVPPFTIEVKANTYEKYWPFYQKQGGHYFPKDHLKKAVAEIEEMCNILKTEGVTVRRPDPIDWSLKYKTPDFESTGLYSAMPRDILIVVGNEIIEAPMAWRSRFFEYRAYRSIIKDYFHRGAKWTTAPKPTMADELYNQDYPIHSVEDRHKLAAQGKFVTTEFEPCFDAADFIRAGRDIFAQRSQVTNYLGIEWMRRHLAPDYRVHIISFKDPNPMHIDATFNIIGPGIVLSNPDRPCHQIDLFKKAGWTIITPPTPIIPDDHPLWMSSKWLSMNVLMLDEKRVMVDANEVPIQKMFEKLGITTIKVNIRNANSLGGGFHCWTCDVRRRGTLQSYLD
UniProt O75223: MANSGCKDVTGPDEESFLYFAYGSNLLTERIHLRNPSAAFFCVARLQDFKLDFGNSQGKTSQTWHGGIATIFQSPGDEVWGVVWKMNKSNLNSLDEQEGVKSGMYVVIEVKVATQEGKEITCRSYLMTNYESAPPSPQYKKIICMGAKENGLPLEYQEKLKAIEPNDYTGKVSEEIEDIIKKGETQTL
UniProt Q8TF64: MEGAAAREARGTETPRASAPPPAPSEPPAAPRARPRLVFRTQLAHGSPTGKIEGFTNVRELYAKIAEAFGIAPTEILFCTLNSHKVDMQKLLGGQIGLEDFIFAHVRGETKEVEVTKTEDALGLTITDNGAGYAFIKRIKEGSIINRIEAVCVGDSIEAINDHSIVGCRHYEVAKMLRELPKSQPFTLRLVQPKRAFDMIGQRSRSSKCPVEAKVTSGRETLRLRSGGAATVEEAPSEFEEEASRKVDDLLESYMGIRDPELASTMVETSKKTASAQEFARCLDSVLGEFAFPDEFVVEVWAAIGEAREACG
UniProt P41250: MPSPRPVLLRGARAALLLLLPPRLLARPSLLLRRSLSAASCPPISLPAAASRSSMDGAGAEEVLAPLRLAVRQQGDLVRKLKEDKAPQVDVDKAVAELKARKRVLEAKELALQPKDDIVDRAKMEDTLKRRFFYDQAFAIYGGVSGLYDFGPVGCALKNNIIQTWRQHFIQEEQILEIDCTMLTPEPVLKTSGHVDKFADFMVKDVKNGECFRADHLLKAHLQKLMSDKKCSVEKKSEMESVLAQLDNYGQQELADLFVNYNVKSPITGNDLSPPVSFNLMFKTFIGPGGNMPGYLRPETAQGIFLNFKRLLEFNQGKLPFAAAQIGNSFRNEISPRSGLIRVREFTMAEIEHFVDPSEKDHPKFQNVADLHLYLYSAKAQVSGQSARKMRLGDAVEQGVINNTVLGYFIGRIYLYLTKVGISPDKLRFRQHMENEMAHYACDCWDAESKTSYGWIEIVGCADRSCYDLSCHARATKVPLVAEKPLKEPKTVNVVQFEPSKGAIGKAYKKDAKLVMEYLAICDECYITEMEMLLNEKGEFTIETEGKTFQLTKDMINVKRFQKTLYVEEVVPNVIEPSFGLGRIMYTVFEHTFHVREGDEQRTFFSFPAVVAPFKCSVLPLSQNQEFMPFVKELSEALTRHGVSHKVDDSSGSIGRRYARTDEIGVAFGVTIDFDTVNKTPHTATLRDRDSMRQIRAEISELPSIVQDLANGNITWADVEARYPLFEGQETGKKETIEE
UniProt Q96PP8: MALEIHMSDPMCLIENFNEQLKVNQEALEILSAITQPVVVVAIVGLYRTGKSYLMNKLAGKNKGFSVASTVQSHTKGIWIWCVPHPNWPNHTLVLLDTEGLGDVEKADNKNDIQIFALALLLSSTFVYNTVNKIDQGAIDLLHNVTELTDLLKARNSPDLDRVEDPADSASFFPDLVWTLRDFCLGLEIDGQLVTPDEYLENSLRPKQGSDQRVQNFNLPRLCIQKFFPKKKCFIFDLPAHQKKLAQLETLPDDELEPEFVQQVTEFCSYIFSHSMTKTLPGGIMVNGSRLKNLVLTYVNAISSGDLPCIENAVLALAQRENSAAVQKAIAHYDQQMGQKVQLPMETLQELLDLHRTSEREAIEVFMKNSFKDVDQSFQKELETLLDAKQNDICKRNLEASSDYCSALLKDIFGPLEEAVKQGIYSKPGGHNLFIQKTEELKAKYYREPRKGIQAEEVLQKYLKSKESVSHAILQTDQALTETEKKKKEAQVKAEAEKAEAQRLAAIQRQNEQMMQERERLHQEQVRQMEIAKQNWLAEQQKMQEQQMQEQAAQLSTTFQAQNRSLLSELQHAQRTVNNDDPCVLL
UniProt Q9H2C0: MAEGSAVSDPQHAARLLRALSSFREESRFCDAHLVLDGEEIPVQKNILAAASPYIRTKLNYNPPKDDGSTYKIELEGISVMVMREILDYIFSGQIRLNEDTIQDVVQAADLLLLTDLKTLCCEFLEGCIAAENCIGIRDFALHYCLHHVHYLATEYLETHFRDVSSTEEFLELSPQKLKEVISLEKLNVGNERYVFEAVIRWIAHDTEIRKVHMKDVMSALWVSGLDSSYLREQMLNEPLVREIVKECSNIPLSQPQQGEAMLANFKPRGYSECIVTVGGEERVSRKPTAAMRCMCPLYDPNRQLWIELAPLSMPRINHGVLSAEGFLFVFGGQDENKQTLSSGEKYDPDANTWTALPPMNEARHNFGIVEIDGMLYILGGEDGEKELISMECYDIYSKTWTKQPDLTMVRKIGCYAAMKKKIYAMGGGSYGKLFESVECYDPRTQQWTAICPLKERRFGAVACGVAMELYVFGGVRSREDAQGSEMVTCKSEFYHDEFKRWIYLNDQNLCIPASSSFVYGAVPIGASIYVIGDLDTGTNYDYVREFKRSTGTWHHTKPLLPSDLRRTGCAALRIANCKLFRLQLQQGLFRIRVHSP
UniProt O14976: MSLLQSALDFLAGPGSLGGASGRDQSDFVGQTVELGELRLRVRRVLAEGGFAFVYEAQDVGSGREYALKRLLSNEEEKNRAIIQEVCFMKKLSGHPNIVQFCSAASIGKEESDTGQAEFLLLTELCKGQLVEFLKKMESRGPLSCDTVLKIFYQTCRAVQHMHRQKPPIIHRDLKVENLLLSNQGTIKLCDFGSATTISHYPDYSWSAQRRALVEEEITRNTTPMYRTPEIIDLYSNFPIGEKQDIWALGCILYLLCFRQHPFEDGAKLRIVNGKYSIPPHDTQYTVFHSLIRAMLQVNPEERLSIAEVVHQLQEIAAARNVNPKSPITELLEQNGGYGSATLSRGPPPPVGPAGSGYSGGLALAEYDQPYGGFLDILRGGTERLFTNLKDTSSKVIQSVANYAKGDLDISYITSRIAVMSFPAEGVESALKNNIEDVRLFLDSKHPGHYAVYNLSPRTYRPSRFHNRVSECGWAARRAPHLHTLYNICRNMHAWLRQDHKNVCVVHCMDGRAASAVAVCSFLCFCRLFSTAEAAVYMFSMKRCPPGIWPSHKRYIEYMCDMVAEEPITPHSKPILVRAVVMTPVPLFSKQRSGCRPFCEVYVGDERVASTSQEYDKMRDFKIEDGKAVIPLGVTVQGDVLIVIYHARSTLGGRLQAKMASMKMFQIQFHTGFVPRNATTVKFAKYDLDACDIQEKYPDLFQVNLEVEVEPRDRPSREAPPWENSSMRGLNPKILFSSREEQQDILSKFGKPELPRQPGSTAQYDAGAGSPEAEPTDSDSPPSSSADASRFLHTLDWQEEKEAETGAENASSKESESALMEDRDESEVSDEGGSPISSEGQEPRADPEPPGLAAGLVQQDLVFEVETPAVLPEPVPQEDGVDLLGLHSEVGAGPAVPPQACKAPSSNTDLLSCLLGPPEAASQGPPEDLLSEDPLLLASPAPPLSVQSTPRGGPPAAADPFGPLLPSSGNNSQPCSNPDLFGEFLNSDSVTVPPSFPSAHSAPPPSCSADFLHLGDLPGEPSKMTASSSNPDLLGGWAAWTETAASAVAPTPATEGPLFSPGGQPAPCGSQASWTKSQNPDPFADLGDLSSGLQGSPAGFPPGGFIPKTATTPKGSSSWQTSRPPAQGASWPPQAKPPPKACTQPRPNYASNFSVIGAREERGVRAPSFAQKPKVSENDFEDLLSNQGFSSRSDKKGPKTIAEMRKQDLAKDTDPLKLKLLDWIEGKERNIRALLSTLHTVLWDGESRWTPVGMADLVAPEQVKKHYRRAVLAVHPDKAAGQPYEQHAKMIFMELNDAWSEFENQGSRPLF
UniProt Q8N2G8: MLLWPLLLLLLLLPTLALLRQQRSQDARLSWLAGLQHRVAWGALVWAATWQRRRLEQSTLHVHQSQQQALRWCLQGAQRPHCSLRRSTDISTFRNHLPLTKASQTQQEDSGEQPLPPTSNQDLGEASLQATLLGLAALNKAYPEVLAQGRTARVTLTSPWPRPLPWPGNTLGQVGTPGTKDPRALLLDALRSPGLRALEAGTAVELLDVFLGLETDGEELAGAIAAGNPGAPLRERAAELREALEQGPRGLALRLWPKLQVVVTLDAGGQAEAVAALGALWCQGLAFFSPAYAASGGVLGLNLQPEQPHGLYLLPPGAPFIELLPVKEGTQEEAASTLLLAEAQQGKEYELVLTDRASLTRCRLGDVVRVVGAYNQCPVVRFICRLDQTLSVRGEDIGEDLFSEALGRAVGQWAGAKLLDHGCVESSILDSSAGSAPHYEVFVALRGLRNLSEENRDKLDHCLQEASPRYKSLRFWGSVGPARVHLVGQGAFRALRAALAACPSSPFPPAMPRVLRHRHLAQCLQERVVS
UniProt Q9NXN4: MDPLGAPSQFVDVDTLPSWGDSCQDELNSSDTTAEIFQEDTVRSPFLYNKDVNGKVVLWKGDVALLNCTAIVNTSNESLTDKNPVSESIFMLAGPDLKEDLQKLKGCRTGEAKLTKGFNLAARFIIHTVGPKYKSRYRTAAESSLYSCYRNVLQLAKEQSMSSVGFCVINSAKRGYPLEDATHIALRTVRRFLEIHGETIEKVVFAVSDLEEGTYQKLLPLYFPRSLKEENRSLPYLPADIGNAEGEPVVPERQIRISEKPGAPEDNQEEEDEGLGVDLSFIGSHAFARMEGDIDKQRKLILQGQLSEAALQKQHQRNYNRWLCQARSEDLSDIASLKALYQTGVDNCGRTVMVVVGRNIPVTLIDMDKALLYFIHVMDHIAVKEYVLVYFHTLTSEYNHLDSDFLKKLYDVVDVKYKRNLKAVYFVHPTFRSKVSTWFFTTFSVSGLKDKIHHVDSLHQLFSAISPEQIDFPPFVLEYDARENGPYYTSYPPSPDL
UniProt Q96C23: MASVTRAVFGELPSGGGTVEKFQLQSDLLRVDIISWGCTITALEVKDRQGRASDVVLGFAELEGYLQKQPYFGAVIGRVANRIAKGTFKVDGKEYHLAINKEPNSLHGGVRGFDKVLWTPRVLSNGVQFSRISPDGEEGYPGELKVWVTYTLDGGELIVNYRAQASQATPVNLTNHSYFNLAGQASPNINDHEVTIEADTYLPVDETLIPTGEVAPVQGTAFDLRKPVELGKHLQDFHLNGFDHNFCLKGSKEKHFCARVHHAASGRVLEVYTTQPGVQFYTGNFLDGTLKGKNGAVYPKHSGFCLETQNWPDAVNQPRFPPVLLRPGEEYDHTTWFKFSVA
UniProt Q8WWP7: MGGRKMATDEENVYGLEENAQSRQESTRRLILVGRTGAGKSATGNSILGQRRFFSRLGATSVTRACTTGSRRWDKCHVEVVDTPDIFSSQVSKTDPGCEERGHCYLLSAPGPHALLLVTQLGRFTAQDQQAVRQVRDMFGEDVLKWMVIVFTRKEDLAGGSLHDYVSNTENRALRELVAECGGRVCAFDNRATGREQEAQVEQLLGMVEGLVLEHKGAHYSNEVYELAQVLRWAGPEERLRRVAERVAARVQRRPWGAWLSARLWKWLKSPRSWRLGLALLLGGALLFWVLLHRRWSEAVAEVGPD
UniProt Q9UJY5: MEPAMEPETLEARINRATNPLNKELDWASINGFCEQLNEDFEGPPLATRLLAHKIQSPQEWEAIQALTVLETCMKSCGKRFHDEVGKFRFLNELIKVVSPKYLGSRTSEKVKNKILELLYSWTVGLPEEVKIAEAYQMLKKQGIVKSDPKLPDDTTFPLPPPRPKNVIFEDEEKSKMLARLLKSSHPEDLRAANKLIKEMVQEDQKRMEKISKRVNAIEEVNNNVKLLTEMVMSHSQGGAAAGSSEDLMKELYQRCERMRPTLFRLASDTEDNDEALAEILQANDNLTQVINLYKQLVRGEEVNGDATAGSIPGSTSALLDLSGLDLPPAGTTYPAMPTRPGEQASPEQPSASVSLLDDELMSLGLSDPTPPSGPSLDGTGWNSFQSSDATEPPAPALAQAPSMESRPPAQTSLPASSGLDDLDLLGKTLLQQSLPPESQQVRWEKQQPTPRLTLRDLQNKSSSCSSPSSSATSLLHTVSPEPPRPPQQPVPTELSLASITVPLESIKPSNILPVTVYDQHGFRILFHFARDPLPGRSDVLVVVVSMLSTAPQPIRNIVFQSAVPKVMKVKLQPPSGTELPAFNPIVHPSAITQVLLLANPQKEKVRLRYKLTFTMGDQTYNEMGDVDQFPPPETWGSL

Target	probe-labelled cysteine peptide fold change
GEMIN5_Q8TEQ6_676_EEPLCNFR (UniProt Q8TEQ6)	0.0316
GATM_P50440_407_NANSLGGGFHCWTCDVR (UniProt P50440)	0.195
GATM_P50440_131_KAVAEIEEMCNILK (UniProt P50440)	-0.271
GBE1_Q04446_309_NSADGLNMFDGTDSCYFHSGPR (UniProt Q04446)	0.049
GATM_P50440_50_NSCAADDK (UniProt P50440)	-0.154
GGCT_O75223_144_KIICMGAK (UniProt O75223)	-0.118
GDI1_P31150_302_IICILSHPIK (UniProt P31150)	-0.015
GEMIN5_Q8TEQ6_19_CSDAVPGGLFGFAAR (UniProt Q8TEQ6)	0.0916
GANAB_Q14697_822_SSECMKDDPITLFVALSPQGTAQGELFLDDGHTFNYQTR (UniProt Q14697)	-0.0463
GIPC3_Q8TF64_168_EGSIINRIEAVCVGDSIEAINDHSIVGCR (UniProt Q8TF64)	-0.368
GARS_P41250_442+444_FRQHMENEMAHYACDCWDAESK (UniProt P41250)	-0.119
GBP5_Q96PP8_233_CFIFDLPAHQK (UniProt Q96PP8)	-0.0885
GALK1_P51570_203_GHALLIDCR (UniProt P51570)	0.208
GAN_Q9H2C0_415_IGCYAAMK (UniProt Q9H2C0)	-0.0456
GAK_O14976_599_SGCRPFCEVYVGDER (UniProt O14976)	-0.0153
GCN1_Q92616_1535_QLSSCLPNIVPK (UniProt Q92616)	-0.0747
GEMIN4_P57678_210_LRSDPDACPTMPLLAMLLR (UniProt P57678)	-0.252
GATD1_Q8NB37_94_YHALLIPSCPGALTDLASSGSLAR (UniProt Q8NB37)	-0.12
GDI1_P31150_335_KSDIYVCMISYAHNVAAQGK (UniProt P31150)	0.0564
GBF1_Q92538_1543_TLWAHCWCPLLQGIACLCCDAR (UniProt Q92538)	-0.132

Target	probe-labelled cysteine peptide fold change
GAPVD1_Q14C86_293_TLSCVDRLEVGEVR (UniProt Q14C86)	0.185
GHDC_Q8N2G8_423_LLDHGCVESSILDSSAGSAPHYEVFVALR (UniProt Q8N2G8)	-0.0969
GDAP2_Q9NXN4_148_TAAESSLYSCYR (UniProt Q9NXN4)	-0.0526
GGA3_Q9NZ52_255_ELFDQCENK (UniProt Q9NZ52)	0.0375
GALM_Q96C23_247_HLQDFHLNGFDHNFCLK (UniProt Q96C23)	0.0973
GCN1_Q92616_2255_LIGNESKGEHVPGFCLPK (UniProt Q92616)	-0.463
GCAT_O75600_349_MEAAGFTISGASHPICPVMLGDAR (UniProt O75600)	0.0843
GIMAP1_Q8WWP7_98_TDPGCEER (UniProt Q8WWP7)	-0.0548
GART_P22102_733_TFNCGVGAVLVVSK (UniProt P22102)	-0.0325
GFM1_Q96RP9_706_SCTEGK (UniProt Q96RP9)	0.057
GIGYF2_Q6Y7W6_573_RACDESFQPLGDIMK (UniProt Q6Y7W6)	0.0526
GATM_P50440_407+410_NANSLGGGFHCWTCDVR (UniProt P50440)	-0.0127
GGCT_O75223_144_IICMGAK (UniProt O75223)	-0.0146
GEMIN4_P57678_317_LPSETIFVGCEFLHHLLR (UniProt P57678)	0.0505
GDI2_P50395_202_FDLGQDVIDFTGHALALYRTDDYLDQPCYETINR (UniProt P50395)	-0.34
GAN_Q9H2C0_452_TQQWTAICPLK (UniProt Q9H2C0)	0.0042
GGA1_Q9UJY5_73_IQSPQEWEAIQALTVLETCMK (UniProt Q9UJY5)	0.0502
GALK2_Q01415_379_DMYECSCPELDQLVDICR (UniProt Q01415)	-0.151
GART_P22102_93_SAGVQCFGPTAEAAQLESSK (UniProt P22102)	0.0151

same assay, conditions: 50 µM; THP-1; incubation time: 4 h

Target	probe-labelled cysteine peptide fold change
GEMIN5_Q8TEQ6_676_EEPLCNFR (UniProt Q8TEQ6)	0.0281
GATM_P50440_407_NANSLGGGFHCWTCDVR (UniProt P50440)	-0.119
GATM_P50440_131_KAVAEIEEMCNILK (UniProt P50440)	-0.2
GBE1_Q04446_309_NSADGLNMFDGTDSCYFHSGPR (UniProt Q04446)	-0.0355
GATM_P50440_50_NSCAADDK (UniProt P50440)	-0.254
GGCT_O75223_144_KIICMGAK (UniProt O75223)	-0.195
GDI1_P31150_302_IICILSHPIK (UniProt P31150)	0.0665
GEMIN5_Q8TEQ6_19_CSDAVPGGLFGFAAR (UniProt Q8TEQ6)	0.0885
GANAB_Q14697_822_SSECMKDDPITLFVALSPQGTAQGELFLDDGHTFNYQTR (UniProt Q14697)	0.116
GIPC3_Q8TF64_168_EGSIINRIEAVCVGDSIEAINDHSIVGCR (UniProt Q8TF64)	-0.0169
GARS_P41250_442+444_FRQHMENEMAHYACDCWDAESK (UniProt P41250)	-0.105
GBP5_Q96PP8_233_CFIFDLPAHQK (UniProt Q96PP8)	-0.135
GALK1_P51570_203_GHALLIDCR (UniProt P51570)	0.167
GAN_Q9H2C0_415_IGCYAAMK (UniProt Q9H2C0)	-0.0292
GAK_O14976_599_SGCRPFCEVYVGDER (UniProt O14976)	-0.0137
GCN1_Q92616_1535_QLSSCLPNIVPK (UniProt Q92616)	0.129
GEMIN4_P57678_210_LRSDPDACPTMPLLAMLLR (UniProt P57678)	-0.0506
GATD1_Q8NB37_94_YHALLIPSCPGALTDLASSGSLAR (UniProt Q8NB37)	-0.0933
GDI1_P31150_335_KSDIYVCMISYAHNVAAQGK (UniProt P31150)	0.11
GBF1_Q92538_1543_TLWAHCWCPLLQGIACLCCDAR (UniProt Q92538)	0.0972

Target	probe-labelled cysteine peptide fold change
GAPVD1_Q14C86_293_TLSCVDRLEVGEVR (UniProt Q14C86)	0.128
GHDC_Q8N2G8_423_LLDHGCVESSILDSSAGSAPHYEVFVALR (UniProt Q8N2G8)	-0.173
GDAP2_Q9NXN4_148_TAAESSLYSCYR (UniProt Q9NXN4)	0.0667
GGA3_Q9NZ52_255_ELFDQCENK (UniProt Q9NZ52)	0.0992
GALM_Q96C23_247_HLQDFHLNGFDHNFCLK (UniProt Q96C23)	0.105
GCN1_Q92616_2255_LIGNESKGEHVPGFCLPK (UniProt Q92616)	-0.296
GCAT_O75600_349_MEAAGFTISGASHPICPVMLGDAR (UniProt O75600)	0.0388
GIMAP1_Q8WWP7_98_TDPGCEER (UniProt Q8WWP7)	-0.0364
GART_P22102_733_TFNCGVGAVLVVSK (UniProt P22102)	0.03
GFM1_Q96RP9_706_SCTEGK (UniProt Q96RP9)	-0.000645
GIGYF2_Q6Y7W6_573_RACDESFQPLGDIMK (UniProt Q6Y7W6)	0.0298
GATM_P50440_407+410_NANSLGGGFHCWTCDVR (UniProt P50440)	-0.0457
GGCT_O75223_144_IICMGAK (UniProt O75223)	-0.017
GEMIN4_P57678_317_LPSETIFVGCEFLHHLLR (UniProt P57678)	0.0534
GDI2_P50395_202_FDLGQDVIDFTGHALALYRTDDYLDQPCYETINR (UniProt P50395)	-0.227
GAN_Q9H2C0_452_TQQWTAICPLK (UniProt Q9H2C0)	0.0857
GGA1_Q9UJY5_73_IQSPQEWEAIQALTVLETCMK (UniProt Q9UJY5)	-0.0197
GALK2_Q01415_379_DMYECSCPELDQLVDICR (UniProt Q01415)	0.282
GART_P22102_93_SAGVQCFGPTAEAAQLESSK (UniProt P22102)	-0.0827

— the supplement of paper PMC12067093, “Discovery and optimisation of a covalent ligand for TRIM25 and its application to targeted protein ubiquitination” (Chemical Science, 2025)
